From patent US9205139B2, “Immunomodulatory methods and systems for treatment and/or prevention of aneurysms” (priority 2010, dated 2015)
“Also recorded” adds a separate entry of the source. Part of at least one peptide drawing is inferred or uncertain, most often the ends. Peptide text beside a SMILES is read from it.

What was measured:
[1] = tested on: apoE (−/−) mice; experiment: Aortic atherosclerosis and aortic sinus plaque composition after immunization, high cholesterol chow; type: in vivo; conditions: for reduction of aortic atherosclerosis: euthanasia at 25 weeks
[2] = tested on: CD11c(+) dendritic cells; experiment: Flow cytometry of dendritic cells at immunization site and lymph nodes; type: in vivo, mice; conditions: 1 week after the third immunization; compared with cBSA/alum group
[3] = tested on: naïve male apoE (−/−) recipient mice; experiment: Adoptive transfer of donor lymphocytes from immunized mice to naïve recipients; type: in vivo
[4] = tested on: Granzyme B; experiment: Granzyme B level in CD8(+) T-cells from immunized mice (flow cytometry); type: cell-based; conditions: compared to PBS or cBSA/alum group
[5] = tested on: Perforin; experiment: Perforin level in CD8(+) T-cells from immunized mice (flow cytometry); type: cell-based; conditions: compared to PBS or cBSA/alum group
[6] = tested on: CD8+CD25− T cells; experiment: Presentation of p210 by DCs to CD8+CD25− T cells in co-culture; type: cell-based, mice; conditions: 48 hours; DCs loaded with p210 and treated with LPS; compared to untreated or LPS only
[7] = tested on: atherosclerosis; conditions: WO 02/080954, Table B; cited from earlier work
[8] = tested on: male apoE KO mice; experiment: Angiotensin II-induced aortic aneurysm formation, rupture and survival after immunization
[9] = tested on: bone marrow derived DCs; experiment: Cytolytic activity of CD8(+) T cells from immunized mice against dendritic cells in vitro

CC(C)C[C@H](NC(=O)[C@H](CC(=O)O)NC(=O)[C@H](Cc1ccccc1)NC(=O)[C@H](CO)NC(=O)[C@H](CCC(N)=O)NC(=O)[C@H](CCCCN)NC(=O)[C@@H](NC(=O)[C@@H](NC(=O)[C@@H](N)CCCCN)[C@@H](C)O)[C@@H](C)O)C(=O)N[C@@H](CO)C(=O)N[C@H](C(=O)N[C@@H](CCCCN)C(=O)N[C@@H](C)C(=O)N[C@@H](CCC(N)=O)C(=O)N[C@@H](Cc1ccc(O)cc1)C(=O)N[C@@H](CCCCN)C(=O)N[C@@H](CCCCN)C(=O)N[C@@H](CC(N)=O)C(=O)N[C@@H](CCCCN)C(=O)N[C@@H](Cc1c[nH]cn1)C(=O)O)C(C)C [p210, KTTKQ SFDLS VKAQY KKNKH] (H-KTTKQSFDLSVKAQYKKNKH-OH)
athero-reduction by dose (pilot experiment) ([1]; 100 μg dose compared to 25 or 50 μg dose): optimum athero-reduction
DC immuno-reactivity (CD11c) in aortic sinus plaques ([1]; CD11c immuno-staining): significantly reduced
macrophage immuno-reactivity (MOMA-2) in aortic sinus plaques ([1]; MOMA-2 immuno-staining): significantly reduced
reduction of atherosclerosis ([1]; as summarised in the description with reference to the Examples): about 57.6%
aortic atherosclerosis ([1]; compared to PBS and cBSA/Alum group, n=9-10 each group, FIG. 3A): significant reduction
reduction of aortic atherosclerosis ([1]; compared to PBS group): 57%
reduction of aortic atherosclerosis ([1]; compared to cBSA/Alum group): 50%
CD11c(+)CD86(+) cells in lymph nodes [2]: reduced
lesion size in recipients of CD4(+)CD25(+) T-cells ([3]; 1×10^5 cells/mouse): did not reproduce the athero-reducing effect
atherosclerosis in recipients of B-cells ([3]; 2×10^7 B-cells/mouse from immunized donors): did not affect atherosclerosis
lesion size in recipients of CD4(+)CD25(+) T-cells ([3]; 3×10^5 cells/mouse): did not reproduce the athero-reducing effect
Granzyme B in CD8(+) T-cells [4]: increased granzyme B expression; also recorded: higher level of Granzyme B
perforin in CD8(+) T-cells [5]: not perforin; also recorded: no difference
CD8+CD25+ T cells after co-culture with p210-loaded DCs [6]: significantly increased; also recorded: increased activated CD25+ cells
percentage reduction of atherosclerosis [7]: 57.9%
Rupture incidence (%, total) ([8]; Table 3A, AngII pump 4 weeks): 7.1%
Aneurysm incidence ([8]; Table 3B, P210 42 mice, cBSA 46 mice, AngII pump): 54.8%
Aneurysmal segment/total segment (%) ([8]; aorta measured at 8 segments, elaboration of Table 4): 14.3%
Aneurysm (include Rupture) ([8]; number of mice of total (p210 14, cBSA 17), AngII pump 4 weeks): 8
Rupture ([8]; number of mice with rupture of total (p210 14, cBSA 17), AngII pump 4 weeks): 1
cytolytic activity of CD8(+) T cells against DCs, normal medium ([9]; CD8:DC 3:1, 4 hours, medium with 10% FBS, CD11c-gated, N = 11 each): significantly increased the percentage of DC lysis; also recorded: higher cytolytic activity
cytolytic activity of CD8+ T cells after depletion of CD25+ cells ([9]; CD25+ cells depleted): abrogated the increased cytolytic activity
cytolytic activity of CD8(+) T cells against DCs, delipidated medium ([9]; media with delipidated FBS, N = 5 each): lost and abrogated
